Test results from PubChem BioAssay AID2685 (National Center for Advancing Translational Sciences (NCATS), 2010).
The list shows a part of the results. Shown are side measurements of this screen, not its main read-out; they come without a call. The list favours compounds with an active or inconclusive main result. Words in brackets tell the shape of the fitted curve; partial curves, single points and poor fits give uncertain potencies.

Test: qHTS Assay for Lipid Storage Modulators in Drosophila S3 Cells;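 on cell number change: cells counted by Cell Tracker Red CMTPX staining in the red channel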
Details: BODIPY lipid droplet fluorescence, 18-24 h; for cell number change: measured here: cell count max response, cells fed with added oleic acid
In short: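 Drosophila S3 cells loaded with oleic acid (400 uM, as added) and compounds at several concentrations; lipid droplets imaged by 488-nm laser-scanning cytometry, 500–530 nm intensity and object ratio to cell channel. Percent activity normalized to 20 uM Triacsin C.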

[1] = measured here: lipid fluorescence (Fed channel) AC50, cells fed with added oleic acid
[2] = measured here: cell number channel AC50, cells fed with added oleic acid

SMILES	cell number change [%]	AC50 [1]	AC50 [2]
COc1ccc(Oc2cccc(Cl)c2CNC(=O)CSCC(=O)O)cc1	-19.7	0.184 µM [falling, full curve]	
N#Cc1ccccc1NC(=S)NC(=O)c1cccs1	12.1		
CCN(CC)S(=O)(=O)c1ccc(C(=O)OCC(=O)N2CCOCC2)cc1	19.1	6.51 µM [falling, single point]	
Nc1c(C(=O)O)cnc2c(-c3ccc(Cl)cc3)cnn12	-24.6		0.13 µM [rising, full curve, poor fit]
COc1cc(C(=O)NC2Cc3ccccc3C2)ccc1OC1CCN(C(C)=O)CC1	24.4		
CN(C)/C=C/c1oc2ccc(O)cc2c1[N+](=O)[O-]			0.0651 µM [rising, full curve, poor fit]
CC(OC(=O)c1nsc(Cl)c1Cl)C(=O)NC1CCCCC1 (stereo not drawn)	53.8	0.116 µM [falling, single point]	32.6 µM [rising, partial curve, poor fit]
CC1(C)C2CC=C(/C=N/NC(=S)Nc3cccnc3)C1C2 (stereo not drawn)	0.261	0.0517 µM [falling, full curve, poor fit]	0.326 µM [falling, partial curve, poor fit]
CCc1ccc2[nH]c3nc(C)cc(C)c3c(=O)c2c1		0.461 µM [rising, single point]	
Cc1cccc(NC(=O)CN(C)S(=O)(=O)c2cnc[nH]2)c1	-18.4		
Cc1c(NC(=O)C(C)OC(=O)c2cccc(S(=O)(=O)N(C)C)c2)c(=O)n(-c2ccccc2)n1C (stereo not drawn)	12.9		6.51 µM [rising, single point]
O=C1C(Nc2ccccc2)=C2CCCC=C2N1c1ccccc1	-33.8		2.31 µM [falling, partial curve]
Cc1cccn2c(=O)c3cc(C(=O)NC4CCCCC4)c(=N)n(CCN4CCOCC4)c3nc12	13.3		
CC(C)COC(=O)CNc1n[nH]c(=S)[nH]c1=O	15.3		
CCCCn1c(=O)[nH]c(=O)c2c1nc(-c1ccc(OC(F)F)c(OC)c1)n2C	-21		0.0291 µM [falling, full curve, poor fit]
O=C(Nc1nc(-c2cccc3ccccc23)cs1)c1cnccn1	-35.3	29.1 µM [falling, single point]	29.1 µM [falling, single point]
C=CCSc1nnc(-c2ccc(Cl)cc2Cl)o1	-25.8	29.1 µM [rising, single point]	
COc1cccc2[nH]c3c(=O)n(CCN(C)C)cnc3c12	-15.9	6.51 µM [falling, single point]	
Cc1cccc(C)c1NC(=O)CNC(=O)CCC(=O)N1CCOCC1		6.51 µM [falling, single point]	
O=C(Cc1ccccc1)Nc1scc(-c2ccccc2)c1C(=O)N1CCOCC1	-60.6	0.651 µM [falling, single point]	29.1 µM [falling, single point]

SMILES	cell number change [%]	AC50 [1]	AC50 [2]
O=C(NNC(=O)C1CCN(C(=O)Nc2ccccc2)CC1)c1ccc([N+](=O)[O-])cc1	-46.1	29.1 µM [rising, single point]	0.92 µM [falling, full curve, poor fit]
CC1CCN(C2=C(NS(=O)(=O)c3ccc(Cl)cc3)C(=O)c3ccccc3C2=O)CC1	-87.8	6.51 µM [falling, partial curve]	5.8 µM [falling, full curve]
CCn1c(=O)c2cc(C(=O)Nc3cc(C)on3)sc2c2ccccc21	5.35	0.103 µM [rising, full curve]	
COc1ccc(OC)c(C(=O)c2oc3ccccc3c2NC(C)=O)c1	-4.04	1.84 µM [rising, partial curve, poor fit]	0.82 µM [rising, full curve]
CN(C(=O)CCNC(=O)Cn1cnc2ccccc2c1=O)c1ccc(F)cc1	-13		
Cc1ccc(S(=O)(=O)/N=C(/Nc2cccc3ccccc23)c2ccc(F)cc2)cc1	-2.29	29.1 µM [rising, single point]	
COc1ccc(NS(=O)(=O)c2ccc(OC)c(NC(=O)CNC(=O)c3ccc(OC)cc3)c2)cc1	4.32	0.0259 µM [falling, full curve, poor fit]	0.0058 µM [falling, full curve, poor fit]
CC[N+]1(C)CCC(=C2c3ccccc3CC(=O)c3sccc32)CC1 (stereo not drawn)	-6.67	0.00461 µM [falling, full curve, poor fit]	
CCn1c(=O)c2ccccc2n2c(SCC(=O)NCc3cccs3)nnc12	12.1		
O=C(Nc1ccc2[nH]ncc2c1)c1ccccc1Cl	-5.8		
CCCS(=O)(=O)C/C(N)=N/OC(=O)c1ccc(Cl)cc1	-3.95		
O=C1Cc2cc(S(=O)(=O)Nc3cccc([N+](=O)[O-])c3)cc3c2N1CCC3			0.651 µM [falling, single point]
COc1ccc(Cl)cc1S(=O)(=O)N(C)CC(=O)NCCCn1ccnc1	-8.97		
Cc1nn(C)c(Oc2cccc(Cl)c2)c1C#N	-36.4	0.092 µM [falling, full curve]	1.3 µM [falling, full curve]
Cc1c(/C=N\NC(=O)c2ccc(F)cc2)cnn1C	32		0.00461 µM [rising, full curve, poor fit]
O=C(CN(C(=O)c1csnn1)c1cccc(Cl)c1)NC1CCCC1	5.13	5.17 µM [rising, single point]	
Cc1cccn2c(=O)c(C=NCc3ccccc3)c(NCCO)nc12	-12.8	32.6 µM [falling, single point]	
CCOC(=O)c1[nH]c2ccc(OC)cc2c1NC(=O)CCN1CCCC(C)C1 (stereo not drawn)	-7.09		
COC(=O)c1[nH]c(C)c(/C(O)=C2\C(=O)C(=O)N(CCN(C)C)C2c2ccc(C)o2)c1C (stereo not drawn)	13.5	16.4 µM [rising, partial curve]	
O=C1CC(c2ccc3c(c2)OCCO3)Oc2ccc([N+](=O)[O-])cc21 (stereo not drawn)		5.8 µM [falling, full curve]	

Copied from the list.
COc1ccc(Cl)cc1S(=O)(=O)N(C)CC(=O)NCCCn1ccnc1 | cell number change [%]: -8.97
COc1ccc(NS(=O)(=O)c2ccc(OC)c(NC(=O)CNC(=O)c3ccc(OC)cc3)c2)cc1 | cell number change [%]: 4.32
